Values from PubChem BioAssay AID1259308 (NCATS, 2017)
This is a random part of about 59,000 deposited reagents. About 1,510 of all reagents (2.6%) were called active. 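Calls use total luciferase alone and ignore viability, so some active siRNAs may act by altering cell number.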 The numbers tell different reagents against one gene apart. Further read-outs or replicates are left out here.

Test: 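Candidate targets for better recombinant protein yield in mammalian cells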 (primary screen)
Cells: human HEK293 embryonic kidney cells stably expressing firefly luciferase (HEK-CMV-Luc2-Hygro)
Knock-down reagent: single siRNA against human genes, 0.8 pmol siRNA per well
Duration: 72 h
Detection: 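Reporter luminescence and viable-cell signal on separate replicate plates, given as percent of non-targeting control and median/MAD z-scores, plus per-cell luciferase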
Direction: total luciferase, z-score and total luciferase, % of control: higher = more reporter protein produced
Call rule: 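Active when the median/MAD z-score for overall luciferase is greater than 3; a gene was taken forward for validation with new siRNAs if at least two of its three siRNAs passed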
Meaning of the calls: active = raised luciferase; inactive = no rise

{"gene symbol": "COA3", "reagent no.": 1, "total luciferase, z-score": 0.794, "total luciferase, % of control": 97.7, "activity call": "inactive"}
{"gene symbol": "COA3", "reagent no.": 2, "total luciferase, z-score": 0.78, "total luciferase, % of control": 97.4, "activity call": "inactive"}
{"gene symbol": "COA3", "reagent no.": 3, "total luciferase, z-score": 1.34, "total luciferase, % of control": 109, "activity call": "inactive"}
{"gene symbol": "LNCRI", "reagent no.": 1, "total luciferase, z-score": 0.151, "total luciferase, % of control": 84.9, "activity call": "inactive"}
{"gene symbol": "LNCRI", "reagent no.": 2, "total luciferase, z-score": 1.87, "total luciferase, % of control": 119, "activity call": "inactive"}
{"gene symbol": "LNCRI", "reagent no.": 3, "total luciferase, z-score": 0.963, "total luciferase, % of control": 101, "activity call": "inactive"}
{"gene symbol": "CASKIN1", "reagent no.": 1, "total luciferase, z-score": 0.319, "total luciferase, % of control": 88.2, "activity call": "inactive"}
{"gene symbol": "CASKIN1", "reagent no.": 2, "total luciferase, z-score": 0.837, "total luciferase, % of control": 98.5, "activity call": "inactive"}
{"gene symbol": "CASKIN1", "reagent no.": 3, "total luciferase, z-score": 0.119, "total luciferase, % of control": 84.3, "activity call": "inactive"}
{"gene symbol": "XAGE2", "reagent no.": 1, "total luciferase, z-score": 1.18, "total luciferase, % of control": 105, "activity call": "inactive"}
{"gene symbol": "XAGE2", "reagent no.": 2, "total luciferase, z-score": 3.66, "total luciferase, % of control": 155, "activity call": "active"}
{"gene symbol": "XAGE2", "reagent no.": 3, "total luciferase, z-score": -1.31, "total luciferase, % of control": 55.9, "activity call": "inactive"}

Next part, starting with the last 2 of the part before.
{"gene symbol": "XAGE2", "reagent no.": 2, "total luciferase, z-score": 3.66, "total luciferase, % of control": 155, "activity call": "active"}
{"gene symbol": "XAGE2", "reagent no.": 3, "total luciferase, z-score": -1.31, "total luciferase, % of control": 55.9, "activity call": "inactive"}
{"gene symbol": "ABCA2", "reagent no.": 1, "total luciferase, z-score": -1.34, "total luciferase, % of control": 55.1, "activity call": "inactive"}
{"gene symbol": "ABCA2", "reagent no.": 2, "total luciferase, z-score": -0.812, "total luciferase, % of control": 65.7, "activity call": "inactive"}
{"gene symbol": "ABCA2", "reagent no.": 3, "total luciferase, z-score": -1.24, "total luciferase, % of control": 57.2, "activity call": "inactive"}
{"gene symbol": "CACNG2", "reagent no.": 1, "total luciferase, z-score": -0.586, "total luciferase, % of control": 70.2, "activity call": "inactive"}
{"gene symbol": "CACNG2", "reagent no.": 2, "total luciferase, z-score": -0.482, "total luciferase, % of control": 72.3, "activity call": "inactive"}
{"gene symbol": "CACNG2", "reagent no.": 3, "total luciferase, z-score": -0.534, "total luciferase, % of control": 71.3, "activity call": "inactive"}
{"gene symbol": "SERPINC1", "reagent no.": 1, "total luciferase, z-score": 3.31, "total luciferase, % of control": 148, "activity call": "active"}
{"gene symbol": "SERPINC1", "reagent no.": 2, "total luciferase, z-score": -0.614, "total luciferase, % of control": 69.7, "activity call": "inactive"}
{"gene symbol": "SERPINC1", "reagent no.": 3, "total luciferase, z-score": -0.422, "total luciferase, % of control": 73.5, "activity call": "inactive"}
